We go through 77 molecules from paper PMC12040169 (PLOS Biology, 2025).

The list shows a part of the results.

This experiment concerns T1, CTL2-GFP (C. trachomatis L2/434/Bu, GFP-expressing).
T1 construct: L2/434/Bu, GFP-expressing
On the set-up: species or system HeLa; Intracellular C. trachomatis growth in HeLa cells, bulk GFP fluorescence relative to DMSO. The settings on record: bulk GFP, single well; 28.5 h, 10 µM; inhibitor.
Consider `CC(=O)c1cccc(-c2ccc3c(c2)C(=O)NC2(CCN(C(=O)OC(C)(C)C)CC2)O3)c1` [CBK131969], for which the “% of control remaining” value came to 96.305%. To `CN1CCN(c2ccc(/C=c3\sc4nc5ccccc5n4c3=O)cc2[N+](=O)[O-])CC1` [CBK263048] belongs 103.487%; to `N#Cc1ccc(Oc2ccc3c(c2)-c2cc(Oc4ccc(C#N)c(C#N)c4)ccc2S3(=O)=O)cc1C#N` [CBK261151], 107.169%; to `CCC(=O)OC1(C(=O)c2ccc(F)cc2)CCN(CCCC(c2ccc(F)cc2)c2ccc(F)cc2)CC1` [CBK025227C], 101.367%.

For the molecule `O=C1c2ccccc2CN1c1nccs1` [CBK113184], the “% of control remaining” value is on record as 114.464%. For `c1ncc(OC2CCNC2)nc1OCCN1CCOCC1` (centres unmarked) [CBK077311T], the “% of control remaining” value turned out to be 162.992%.

Consider `O=S(=O)(Nc1cccc2[nH]ccc12)c1ccc(F)cc1F` [CBK153546], for which the “% of control remaining” value is 126.434%. To `COC(=O)c1cc(Cl)c2ccccc2n1` [CBK012428] belongs 121.357%; to `CC(C)CNCC1CC(C(=O)N2CCC(Cc3ccccc3)CC2)=NO1` (centres unmarked) [CBK003718C], 141.514%. Consider `Cc1cc(NC(=O)c2ccc(S(=O)(=O)N3CCOCC3)cc2)nc2c1c(=O)oc1ccccc12` [CBK291134], for which the “% of control remaining” value is 103.735%. Take `O=C(Nc1ccccc1C(=O)O)c1cc(S(=O)(=O)Nc2cccc([N+](=O)[O-])c2)ccc1Cl` [CBK263234]: the “% of control remaining” value worked out at 118.948%.

For `CCOC(=O)C1CCCN(c2c(C#N)cnc3ccc(Cl)cc23)C1` (centres unmarked) [CBK304405], the “% of control remaining” value was 146.367%.

As for `O=C(NC(Sc1ncccn1)C(=O)c1ccccc1)c1ccccc1` (centres unmarked) [CBK025806], the “% of control remaining” value was 112.622%. `N#C/C(=C\c1ccc2noc(-c3ccccc3)c2c1)c1nc(-c2cc3ccccc3oc2=O)cs1` [CBK267269]: the “% of control remaining” value was 138.877%. To `COc1cc2c(cc1OC)C1(CCN(CCCC(F)(F)F)CC1)NC(=O)C2` [CBK039859] belongs 84.3387%; to `CC(=O)Nc1cccc(NC(=O)N2CCN(Cc3ccccc3)CC2)c1` [CBK155643], 86.1476%; to `CCCCn1c(SCc2nc(-c3ccncc3)no2)nc2ccsc2c1=O` [CBK288576], 108.513%.

As to `Cc1cc(C(=O)C(C)Sc2nnc(N)s2)c(C)n1-c1ccccc1` (centres unmarked) [CBK297916], the “% of control remaining” value is 158.898%. To `CS(=O)(=O)CCOCCNC(=O)c1cc(Br)cnc1Cl` [CBK305178] belongs 131.525%.

For `COc1ccc(-c2cn(-c3ccc(OC)c(OC)c3)nn2)cc1` [CBK113001], the “% of control remaining” value worked out at 107.24%.

For `CCn1c(COc2cccc(C)c2)nnc1SCC(=O)c1ccccc1` [CBK267143], the “% of control remaining” value is 123.182%.

In the case of `CC1(C)CC(=O)C=C(C(=O)Nc2cncc(OC3CCNCC3)n2)O1` [CBK038922T], the “% of control remaining” value is listed as 112.951%.

As to `CC(NC(=O)N1CCSCC1)c1cccc(Br)c1` (centres unmarked) [CBK306475], the “% of control remaining” value turned out to be 136.512%.

Consider `Cc1ccc(NC(=O)CN2C(=O)c3ccccc3C2=O)c(O)c1` [CBK270028], for which the “% of control remaining” value was 148.182%. Regarding `CC(C)(CO)CNc1nc(-c2cc(C(F)(F)F)cc(C(F)(F)F)c2)cnc1N` [CBK063490], the “% of control remaining” value was 133.874%. Under `CCN1CC2(CCC1=O)CCN(Cc1nnc(-c3cccnc3)o1)CC2` [CBK307137] stands 139.499%; under `Cc1c(F)cccc1CNC1CCC(NC(=O)OC(C)(C)C)CC1` (centres unmarked) [CBK056691], 153.02%. Under `Cc1ccc(OC(=O)c2cc(Cl)cnc2Cl)cc1` [CBK090321] stands 136.593%. Under `O=C(c1n[nH]cc1Cl)N1CCCC(c2cc3ccccc3cn2)C1` (centres unmarked) [CBK285062] stands 136.513%; under `Nc1nnc2c(C(F)(F)F)nc3ccccc3n12` [CBK021345], 163.537%; under `CC1Cc2cc(C(=O)C3=C(O)C(=O)N(Cc4ccco4)C3c3cccnc3)ccc2O1` (centres unmarked) [CBK266236], 144.403%. `O=C(CS(=O)(=O)Cc1ccccc1)Nc1ccc(S(=O)(=O)N2CCCCCC2)cc1` [CBK266653]: the “% of control remaining” value came out at 142.342%. On to `Cc1ccc(OCc2ccccc2)c(C(CCN(C(C)C)C(C)C)c2ccccc2)c1` (centres unmarked) [CBK017906], for which the “% of control remaining” value was 36.3093%. Under `COc1c(C)cc(-c2ncnc(C)c2C)cc1C` [CBK306884] stands 166.685%. On to `O=C(CSc1nc(Nc2ccccc2)nc(N2CCOCC2)n1)N1CCN(c2ccccc2)CC1` [CBK269078], for which the “% of control remaining” value was determined as 146.488%.

For `Cc1ccc(S(=O)(=O)NC(=O)NCCCCNC(=O)NS(=O)(=O)c2ccc(C)cc2)cc1` [CBK296078], the “% of control remaining” value amounted to 140.036%. Under `CCCc1[nH]nc(O)c1Cc1ccc(C(F)(F)F)cc1` [CBK075014] stands 91.5218%. As for `CCCc1[nH]nc(O)c1C(=O)c1c(F)cccc1Cl` [CBK103524], the “% of control remaining” value is 76.8773%. Under `C=CCN1C(=O)C2(CC(=O)N(C)C2=O)c2ccccc21` (centres unmarked) [CBK075137] stands 89.0062%; under `CC(C)(C)OC(=O)N1CCC2(CC1)NC(=O)c1cc(-c3cccc4ncccc34)ccc1O2` [CBK083674], 102.96%. To `CCNC(=O)NC(=O)C1CCN(CCc2ccc(O)c(OC)c2)CC1` [CBK035184] belongs 110.179%; to `O=C(Nc1nnc(-c2ccccc2)o1)c1ccc2ncsc2c1` [CBK287598], 153.85%. On to `COc1ccc(-c2cccc(CC3(C(=O)NCc4cccs4)CCOCC3)c2)cc1` [CBK286514], for which the “% of control remaining” value came to 97.5121%. For `O=C(CCCc1nc(-c2ccccc2Cl)no1)NCc1cccnc1` [CBK269516], the “% of control remaining” value is 119.248%.

For `CC(C)(C)NC(=O)Cn1nc(-c2cc3c(s2)CCC3)oc1=O` [CBK284714], the “% of control remaining” value amounted to 88.7323%. Under `O=C(Nc1cccc(-c2nc3ncccc3o2)c1)c1ccc(Cl)c([N+](=O)[O-])c1` [CBK262845] stands 100%; under `CC1(C)Cc2nc(N3CCOCC3)ncc2C(NC(=O)c2cn[nH]c2)C1` (centres unmarked) [CBK307409], 106.901%. Under `CC(C)(C)c1ccc(-c2cc3ncccc3nc2O)cc1` [CBK081302] stands 128.318%; under `N#CCCN(CCN1CCCC1)S(=O)(=O)c1cccc2nsnc12` [CBK261141], 116.989%. Under `COC(=O)CNC(c1ccccc1)c1cc(Br)ccc1NC(C)=O` (centres unmarked) [CBK262976] stands 73.1285%; under `COc1ccc(-c2ccc(OCCNC(=O)c3cccc(F)c3)nn2)cc1` [CBK294428], 121.017%. On to `COc1ccc(NC(=O)C2CCCN2S(=O)(=O)c2ccc(OC)cc2)cc1` (centres unmarked) [CBK070001], for which the “% of control remaining” value is given as 100%.

As for `O=C(CCc1cccnc1)N1CCCc2ccccc21` [CBK200344], the “% of control remaining” value is 127.112%. Consider `COc1ccc2c(c1)C1(CC(=O)N(CCc3scnc3C)C1=O)C(=O)N2Cc1ccccc1` (centres unmarked) [CBK075240], for which the “% of control remaining” value is 109.02%. For the molecule `N#Cc1ccccc1CSCCNC(=O)c1ccc(NC(=O)c2ccco2)s1` [CBK296749], the “% of control remaining” value is listed as 129.67%. To `CC(C)c1ccc(CNC(=O)C2(c3ccccc3)CCCC2)cc1` [CBK161531] belongs 94.2608%. Under `CCc1onc(C)c1NC(=O)NC1CC2(CCCC2)Oc2ccccc21` (centres unmarked) [CBK305890] stands 102.669%. Regarding `COc1ccc(C)cc1S(=O)(=O)N(CC(=O)N1CCN(C)CC1)c1cccc(C(F)(F)F)c1` [CBK269355], the “% of control remaining” value is 83.3099%. To `CC(C)(C)c1cn(C[C@H]2CC3CCN2C[C@@H]3C(=O)Nc2nccs2)nn1` (some centres unmarked) [CBK288737] belongs 125.62%. To `CC(OCc1ccccc1)C(=O)NCC1(N2CCOCC2)CCSC1` (centres unmarked) [CBK305678] belongs 95.0877%; to `O=C(Nc1ccc(F)cc1)c1ccsc1NS(=O)(=O)Cc1ccccc1` [CBK042303], 100%; to `CCN(CC(=O)NCc1ccc(Cl)cc1)S(=O)(=O)c1ccc(OC)cc1` [CBK305836], 157.295%. Under `CN1CCN([C@H]2[C@@H]3OC[C@@H](O3)[C@@H](NCc3ccc(N(C)C)cc3)[C@@H]2O)CC1` [CBK288824] stands 122.835%.

Regarding `O=C(NCc1cccc2ccccc12)C1(c2ccccc2)CCCC1` [CBK149534], the “% of control remaining” value is on record as 110.578%.

Consider `O=C(COc1ccc2ccccc2c1)NCCN1CCOCC1` [CBK265444], for which the “% of control remaining” value was determined as 128.884%.

Turning to `NC(=S)c1c(Cl)cc(C(F)(F)F)cc1Cl` [CBK011349], the “% of control remaining” value amounted to 103.105%.

Regarding `COc1ccc([C@@]23CC[C@@H](NC(=O)Nc4cc(F)c(C#N)cc4F)C[C@@H]2N(C)CC3)cc1OC` [CBK073979T], the “% of control remaining” value worked out at 142.933%. To `COc1ccc(C[C@@H]2NC(=O)[C@H]3CN(C(=O)c4cccc(F)c4)CCN3C2=O)cc1` [CBK289604] belongs 130.336%. With `O=C(Nc1ccc(Cl)cc1)Nc1cc(S(=O)(=O)N2CCCC2)ccc1Cl` [CBK266122], the “% of control remaining” value is listed as 127.032%.

`Cn1cc(C(c2ccccc2OCC(=O)O)c2cn(C)c3ccccc23)c2ccccc21` [CBK266410]: the “% of control remaining” value turned out to be 181.569%.

Regarding `Cn1cccc1C(=O)NCc1ccccc1OC1CCNC1` (centres unmarked) [CBK029463T], the “% of control remaining” value was found to be 100%. Take `N#C/C(=C/c1cn(CC(=O)O)c2ccccc12)c1ccc(C(=O)O)cc1` [CBK268977]: the “% of control remaining” value is 126.834%. Under `c1ccc2[nH]c(CCSCCc3nc4ccccc4[nH]3)nc2c1` [CBK023949] stands 93.044%; under `Cc1cc(S(=O)(=O)N(c2ccc(C(C)(C)C)cc2)C2CCNCC2)c(C)s1` [CBK165075T], 63.3533%.

`CC1(C)COC(CCN2CCN(c3ccc(F)cc3)CC2)c2ccccc21` (centres unmarked) [CBK024080C]: the “% of control remaining” value came out at 102.766%. Under `CC(=O)Nc1ccc(-c2ccc(C(=O)N3CCN(C(=O)N4CCCC4)CC3)cn2)cc1` [CBK160187] stands 101.595%; under `c1cncc(-c2cn3ccnc3c(NC3CCCCC3)n2)c1` [CBK093606], 100%.
